The campaign covered roughly 360,000 compounds. About 7,500 (2.1%) were called active. The inconclusive results got no clear call from the source; some entries with a clear call stand among them for comparison. Calls come from the whole dose curve; as a rule, active = well fitted inhibition curve with a large enough effect; inconclusive = small, poorly fitted or top-dose-only effect, or effect the other way; inactive = flat fitted curve, though single readings scatter. A potency beside an inconclusive call is a rough fit, not a confirmed value.
assay: Nrf2 qHTS screen for inhibitors; conditions: A549 ARE-Fluc reporter, luciferase luminescence, 18-24 h; activity change, negative = inhibition: at 46 µM (top of the series); note: nearly all actives have a fitted effect of over 60% in size
Outline: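 A549 ARE_Fluc cells, 5000/well, 5% FBS OPTI-MEM; compounds in dose-response, 18-24 h at 37 °C/5% CO2; CellTiter-Fluor viability read (Ex 405/Em 525), then BugLite luciferase luminescence = Nrf2 activity.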
% is set by controls: 0 for no effect and ±100 for the full control effect; potency is the fitted concentration of half-maximal effect.

SMILES	Potency	activity change, negative = inhibition
O=C(NC1CC1)c1cc2cc(Br)ccc2s1	inconclusive: 18.4 µM [falling, partial curve, poor fit]	
Cc1ccc(C)c(NS(=O)(=O)c2cc(C(=O)N3CCc4ccccc4C3)ccc2Cl)c1	active: 18.4 µM	
CC1CCN(S(=O)(=O)c2ccc3c(c2)CCN3C(=O)Nc2cccc(Br)c2)CC1		inactive: -3.97%
Cc1ccc(-c2cn(S(=O)(=O)c3cccc([N+](=O)[O-])c3)nc2N)cc1	inconclusive: 16.4 µM [falling, partial curve, poor fit]	
CCC(=O)c1ccc(OCC(=O)Nc2nc(C)cs2)cc1	inconclusive: 10.3 µM [activator, partial curve]	
CCOc1ccc2[nH]c(=O)c(CN(Cc3ccccc3)C(=O)N3CCCC3)cc2c1	inconclusive: 13 µM [activator, partial curve, poor fit]	
Nc1cc(S(=O)(=O)Nc2ccc(Br)cc2)ccc1Cl	inconclusive: 29.1 µM [falling, single point]	
O=C1NC(c2ccccc2)=C(c2nc3ccccc3s2)C(c2ccc(F)cc2)N1 (configuration not stated)	active: 16.4 µM	
CCOC(=O)c1c(S(=O)(=O)NCc2ccc(C)o2)c(C)n(C)c1C	inconclusive: 25.9 µM [activator, partial curve, poor fit]	
CCOCC(=O)NC1CCc2cc(OC(=O)COCC)c(OC)c(OC)c2-c2ccc(SC)c(=O)cc21 (configuration not stated)	inconclusive: 0.517 µM [activator, full curve]	
OC1CCCN(C(=S)Nc2ccc(SC(F)F)cc2)C1 (configuration not stated)	inconclusive: 5.17 µM [activator, full curve]	
CCNS(=O)(=O)c1ccc(NC(=O)c2ccccc2OCC)cc1	inconclusive: 0.092 µM [falling, full curve, poor fit]	
O=C(Nc1ccn(CCCNCc2ccc3[nH]ccc3c2)c(=O)n1)OCc1ccccc1		inactive: -1.64%
COc1ccccc1NS(=O)(=O)c1cccc(C(=O)NCC(c2ccco2)N2CCCC2)c1 (configuration not stated)	inconclusive: 18.4 µM [falling, single point]	
CN(C)c1cc[n+](CC(=O)c2ccc(-c3ccccc3)cc2)cc1	inconclusive: 13 µM [falling, partial curve, poor fit]	
Nc1ncc(-c2cc3ccccc3oc2=O)s1	inconclusive: 2.06 µM [activator, full curve]	
CCOc1nc(-c2ccccc2)ccc1-c1noc(-c2cccs2)n1	inconclusive: 29.1 µM [falling, single point]	
CNC(=S)N/N=C/C1=CCC2CC1C2(C)C (configuration not stated)		inactive: 10.5%
Cc1cccc(CNS(=O)(=O)c2ccc(-c3ccc(=O)[nH]n3)s2)c1	inconclusive: 29.1 µM [falling, single point]	
Cc1cccc(C)c1NC(=O)Cn1c(=O)n(Cc2ccc(C(=O)NCc3ccco3)cc2)c(=O)c2sccc21	active: 18.4 µM	
CC1=NN(c2ccccc2)C(=O)C1C(=O)c1ccc([N+](=O)[O-])cc1 (configuration not stated)	active: 25.9 µM	

SMILES	Potency	activity change, negative = inhibition
CCOC(=O)Cc1cc(C(=O)Nc2ccc(Br)cc2)sc1-c1ccc(C)cc1		inactive: 0%
O=C(O)CCC(=O)Nc1ccc(N2CCCCCC2)cc1	inconclusive: 9.2 µM [falling, partial curve, poor fit]	
Cc1ccc(C(C)(C)C)c(SCC(=O)Nc2nnc(C)s2)c1	inconclusive: 18.4 µM [activator, single point]	
Cc1cc(N2CCN(Cc3nc(-c4ccc(F)cc4)oc3C)CC2)cc(C)n1	inconclusive: 9.2 µM [falling, partial curve, poor fit]	
COC(=O)c1sccc1NC(=O)/C=C/C(=O)O	inconclusive: 32.6 µM [falling, single point]	
COc1ccccc1OCC(=O)OC/C(O)=C(\C#N)c1nc2ccccc2[nH]1		inactive: -2.18%
COCCn1c(SCC(=O)Nc2cc(Cl)ccc2OC)nc2c(c1=O)SC(C)C2 (configuration not stated)	inconclusive: 11.6 µM [falling, partial curve]	
CCC(C)Sc1nnc(CSc2nc(C)cc(C)n2)n1C (configuration not stated)	inconclusive: 4.61 µM [falling, partial curve, poor fit]	
C#CCN1C(=O)S/C(=C\c2ccc(-c3ccc(Cl)c(C(=O)O)c3)o2)C1=O	inconclusive: 7.31 µM [activator, partial curve]	
Nc1c(C(=O)CSc2ncccn2)c(=O)[nH]c(=O)n1C1CC1		inactive: 6.44%
O=C(NCc1ccccn1)C(=O)Nc1ccccc1	inconclusive: 18.4 µM [activator, single point]	
CC1CCCC(NC(=O)/C=C/c2c(F)cccc2Cl)C1C (configuration not stated)	inconclusive: 29.1 µM [activator, single point]	
CCCn1c(=O)c2ccccc2n2c(SCc3nc4ccccc4s3)nnc12	inconclusive: 0.731 µM [activator, full curve]	
O=C(N/N=C/c1cc2c(cc1Cl)OCO2)c1ccccn1	inconclusive: 3.26 µM [activator, full curve, poor fit]	
S=C(NCCc1ccccc1)Nc1ccc(Nc2ccccc2)cc1	inconclusive: 29.1 µM [falling, single point]	
Cc1ccc(NC2CNC(=O)NC2=O)cc1C (configuration not stated)		inactive: 6.89%
Cc1cc(F)ccc1S(=O)(=O)N1CCCOC1CNC(=O)C(=O)NCCN1CCOCC1 (configuration not stated)	inconclusive: 6.51 µM [falling, partial curve, poor fit]	
O=C(Nc1ccc2c(c1)OCCO2)c1ccncc1	inconclusive: 6.51 µM [activator, partial curve]	
CCc1ccc([C@@H]2CC=C(C(=O)O)[C@H](c3ccc(C)cc3)N2S(=O)(=O)c2ccc(C)cc2)cc1	inconclusive: 20.6 µM [falling, single point]	
COc1cc(C#Cc2c(-c3cncn3C)n(C)c3ccc(-c4ccc(OC)c(OC)c4)cc23)cc(OC)c1	inconclusive: 29.1 µM [falling, single point]	
CCCSc1ncc(Cl)c(C(=O)Nc2ccc(S(=O)(=O)N3CCCC(C)C3)cc2)n1 (configuration not stated)	inconclusive: 7.31 µM [falling, partial curve]	

12 structures from above, ordered by molecular weight, falling:
SMILES	Potency	activity change, negative = inhibition
CCCSc1ncc(Cl)c(C(=O)Nc2ccc(S(=O)(=O)N3CCCC(C)C3)cc2)n1 (configuration not stated)	inconclusive: 7.31 µM [falling, partial curve]	
O=C(Nc1ccn(CCCNCc2ccc3[nH]ccc3c2)c(=O)n1)OCc1ccccc1		inactive: -1.64%
CCOc1ccc2[nH]c(=O)c(CN(Cc3ccccc3)C(=O)N3CCCC3)cc2c1	inconclusive: 13 µM [activator, partial curve, poor fit]	
O=C1NC(c2ccccc2)=C(c2nc3ccccc3s2)C(c2ccc(F)cc2)N1 (configuration not stated)	active: 16.4 µM	
C#CCN1C(=O)S/C(=C\c2ccc(-c3ccc(Cl)c(C(=O)O)c3)o2)C1=O	inconclusive: 7.31 µM [activator, partial curve]	
Cc1cc(N2CCN(Cc3nc(-c4ccc(F)cc4)oc3C)CC2)cc(C)n1	inconclusive: 9.2 µM [falling, partial curve, poor fit]	
Nc1cc(S(=O)(=O)Nc2ccc(Br)cc2)ccc1Cl	inconclusive: 29.1 µM [falling, single point]	
CCNS(=O)(=O)c1ccc(NC(=O)c2ccccc2OCC)cc1	inconclusive: 0.092 µM [falling, full curve, poor fit]	
Cc1ccc(C(C)(C)C)c(SCC(=O)Nc2nnc(C)s2)c1	inconclusive: 18.4 µM [activator, single point]	
OC1CCCN(C(=S)Nc2ccc(SC(F)F)cc2)C1 (configuration not stated)	inconclusive: 5.17 µM [activator, full curve]	
O=C(Nc1ccc2c(c1)OCCO2)c1ccncc1	inconclusive: 6.51 µM [activator, partial curve]	
CNC(=S)N/N=C/C1=CCC2CC1C2(C)C (configuration not stated)		inactive: 10.5%
